Assay [1] deals with T1, Myc-CAP2 (UniProt Q9CYT6).
T1 sequence: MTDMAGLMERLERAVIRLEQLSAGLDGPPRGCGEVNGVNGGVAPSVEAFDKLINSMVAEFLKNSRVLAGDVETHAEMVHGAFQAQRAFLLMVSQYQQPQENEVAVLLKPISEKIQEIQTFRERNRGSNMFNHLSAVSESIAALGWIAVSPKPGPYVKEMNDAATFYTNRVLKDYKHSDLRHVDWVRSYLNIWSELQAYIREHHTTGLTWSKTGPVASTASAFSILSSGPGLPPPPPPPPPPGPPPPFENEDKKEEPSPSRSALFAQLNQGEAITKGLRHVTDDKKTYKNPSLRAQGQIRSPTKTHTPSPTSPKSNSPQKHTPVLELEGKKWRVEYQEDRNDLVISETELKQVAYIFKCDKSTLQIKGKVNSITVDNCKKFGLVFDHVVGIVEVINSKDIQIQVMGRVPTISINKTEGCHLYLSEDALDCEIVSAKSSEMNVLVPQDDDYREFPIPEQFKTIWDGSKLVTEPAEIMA
Put plainly: co-IP.

Assay [2] addresses T2, Myc-CAP2(165-476) (UniProt Q9CYT6).
T2 sequence: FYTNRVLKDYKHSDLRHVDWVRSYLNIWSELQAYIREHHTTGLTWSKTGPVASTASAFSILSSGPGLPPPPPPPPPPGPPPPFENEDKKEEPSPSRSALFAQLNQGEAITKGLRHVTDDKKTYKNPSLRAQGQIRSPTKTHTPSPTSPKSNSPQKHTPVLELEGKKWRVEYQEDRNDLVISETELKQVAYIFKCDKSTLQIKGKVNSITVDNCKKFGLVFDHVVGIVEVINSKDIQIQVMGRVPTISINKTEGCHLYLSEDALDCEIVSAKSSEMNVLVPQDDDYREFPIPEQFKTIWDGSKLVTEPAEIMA
Description: co-IP.

The target in assay [3] is T3, Myc-(C32G)CAP2 (UniProt Q9CYT6).
T3 sequence: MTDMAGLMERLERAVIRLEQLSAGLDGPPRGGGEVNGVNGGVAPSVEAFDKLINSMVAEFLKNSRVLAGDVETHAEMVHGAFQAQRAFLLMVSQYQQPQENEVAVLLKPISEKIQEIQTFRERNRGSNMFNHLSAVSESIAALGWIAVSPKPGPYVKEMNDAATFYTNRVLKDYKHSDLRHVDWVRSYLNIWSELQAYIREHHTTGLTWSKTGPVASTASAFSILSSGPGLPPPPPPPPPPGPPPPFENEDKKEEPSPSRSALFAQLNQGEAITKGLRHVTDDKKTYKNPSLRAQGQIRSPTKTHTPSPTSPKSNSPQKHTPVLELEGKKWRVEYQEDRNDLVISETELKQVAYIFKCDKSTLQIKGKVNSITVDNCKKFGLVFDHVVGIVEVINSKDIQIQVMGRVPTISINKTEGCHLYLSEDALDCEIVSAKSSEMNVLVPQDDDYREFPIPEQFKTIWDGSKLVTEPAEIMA
Put plainly: proximity ligation.

The target in assay [4] is T1, Myc-CAP2. Description: proximity ligation.
The target of assay [5] is T3, Myc-(C32G)CAP2. Put plainly: non-reducing SDS-PAGE with Western blot. For orientation: A western blot detects proteins with antibodies after separation by electrophoresis.
The target in another assay is Streptag-(C32G)CAP2 (UniProt Q9CYT6). Put plainly: non-reducing SDS-PAGE with Western blot.
For assay [6], the target named is T2, Myc-CAP2(165-476). Put plainly: non-reducing SDS-PAGE with Western blot.

Results are given in words; binding and its absence hold for the method and conditions named. For part of these data: In cells and extracts the contact can be indirect. Some entries that bind do so weakly or less than the wild type. Tags and fused reporters may be left off the sequences shown.

B1: EGFP-CAP2(1-311) (domain or fragment, UniProt Q9CYT6 1-311)
chain: MTDMAGLMERLERAVIRLEQLSAGLDGPPRGCGEVNGVNGGVAPSVEAFDKLINSMVAEFLKNSRVLAGDVETHAEMVHGAFQAQRAFLLMVSQYQQPQENEVAVLLKPISEKIQEIQTFRERNRGSNMFNHLSAVSESIAALGWIAVSPKPGPYVKEMNDAATFYTNRVLKDYKHSDLRHVDWVRSYLNIWSELQAYIREHHTTGLTWSKTGPVASTASAFSILSSGPGLPPPPPPPPPPGPPPPFENEDKKEEPSPSRSALFAQLNQGEAITKGLRHVTDDKKTYKNPSLRAQGQIRSPTKTHTPSPTS
Take B1: the binding entry with Myc-CAP2 [1] is “binds”.

B2: EGFP-CAP2 (protein, UniProt Q9CYT6 1-476)
chain: MTDMAGLMERLERAVIRLEQLSAGLDGPPRGCGEVNGVNGGVAPSVEAFDKLINSMVAEFLKNSRVLAGDVETHAEMVHGAFQAQRAFLLMVSQYQQPQENEVAVLLKPISEKIQEIQTFRERNRGSNMFNHLSAVSESIAALGWIAVSPKPGPYVKEMNDAATFYTNRVLKDYKHSDLRHVDWVRSYLNIWSELQAYIREHHTTGLTWSKTGPVASTASAFSILSSGPGLPPPPPPPPPPGPPPPFENEDKKEEPSPSRSALFAQLNQGEAITKGLRHVTDDKKTYKNPSLRAQGQIRSPTKTHTPSPTSPKSNSPQKHTPVLELEGKKWRVEYQEDRNDLVISETELKQVAYIFKCDKSTLQIKGKVNSITVDNCKKFGLVFDHVVGIVEVINSKDIQIQVMGRVPTISINKTEGCHLYLSEDALDCEIVSAKSSEMNVLVPQDDDYREFPIPEQFKTIWDGSKLVTEPAEIMA
With B2, the binding result in the assay with Myc-CAP2 [1], with Myc-CAP2(165-476) [2], in the assay with Myc-(C32G)CAP2 [3] and with Myc-CAP2 [4] was “binds” throughout.

B3: Myc-(C32G)CAP2 (protein, UniProt Q9CYT6 1-476)
chain: MTDMAGLMERLERAVIRLEQLSAGLDGPPRGGGEVNGVNGGVAPSVEAFDKLINSMVAEFLKNSRVLAGDVETHAEMVHGAFQAQRAFLLMVSQYQQPQENEVAVLLKPISEKIQEIQTFRERNRGSNMFNHLSAVSESIAALGWIAVSPKPGPYVKEMNDAATFYTNRVLKDYKHSDLRHVDWVRSYLNIWSELQAYIREHHTTGLTWSKTGPVASTASAFSILSSGPGLPPPPPPPPPPGPPPPFENEDKKEEPSPSRSALFAQLNQGEAITKGLRHVTDDKKTYKNPSLRAQGQIRSPTKTHTPSPTSPKSNSPQKHTPVLELEGKKWRVEYQEDRNDLVISETELKQVAYIFKCDKSTLQIKGKVNSITVDNCKKFGLVFDHVVGIVEVINSKDIQIQVMGRVPTISINKTEGCHLYLSEDALDCEIVSAKSSEMNVLVPQDDDYREFPIPEQFKTIWDGSKLVTEPAEIMA
B3: the binding entry with Myc-(C32G)CAP2 [5] is given as “no binding”.

B4: Streptag-(C32G)CAP2 (protein, UniProt Q9CYT6 1-476)
chain: MTDMAGLMERLERAVIRLEQLSAGLDGPPRGGGEVNGVNGGVAPSVEAFDKLINSMVAEFLKNSRVLAGDVETHAEMVHGAFQAQRAFLLMVSQYQQPQENEVAVLLKPISEKIQEIQTFRERNRGSNMFNHLSAVSESIAALGWIAVSPKPGPYVKEMNDAATFYTNRVLKDYKHSDLRHVDWVRSYLNIWSELQAYIREHHTTGLTWSKTGPVASTASAFSILSSGPGLPPPPPPPPPPGPPPPFENEDKKEEPSPSRSALFAQLNQGEAITKGLRHVTDDKKTYKNPSLRAQGQIRSPTKTHTPSPTSPKSNSPQKHTPVLELEGKKWRVEYQEDRNDLVISETELKQVAYIFKCDKSTLQIKGKVNSITVDNCKKFGLVFDHVVGIVEVINSKDIQIQVMGRVPTISINKTEGCHLYLSEDALDCEIVSAKSSEMNVLVPQDDDYREFPIPEQFKTIWDGSKLVTEPAEIMA
Consider B4, for which the binding result in the assay with Streptag-(C32G)CAP2 is “no binding”.

B5: EGFP-CAP2(1-232) (domain or fragment, UniProt Q9CYT6 1-232)
chain: MTDMAGLMERLERAVIRLEQLSAGLDGPPRGCGEVNGVNGGVAPSVEAFDKLINSMVAEFLKNSRVLAGDVETHAEMVHGAFQAQRAFLLMVSQYQQPQENEVAVLLKPISEKIQEIQTFRERNRGSNMFNHLSAVSESIAALGWIAVSPKPGPYVKEMNDAATFYTNRVLKDYKHSDLRHVDWVRSYLNIWSELQAYIREHHTTGLTWSKTGPVASTASAFSILSSGPGLP
In the case of B5, in the assay with Myc-CAP2 [1], the binding result is “binds”.

B6: Myc-CAP2(165-476) (domain or fragment, UniProt Q9CYT6 165-476)
chain: FYTNRVLKDYKHSDLRHVDWVRSYLNIWSELQAYIREHHTTGLTWSKTGPVASTASAFSILSSGPGLPPPPPPPPPPGPPPPFENEDKKEEPSPSRSALFAQLNQGEAITKGLRHVTDDKKTYKNPSLRAQGQIRSPTKTHTPSPTSPKSNSPQKHTPVLELEGKKWRVEYQEDRNDLVISETELKQVAYIFKCDKSTLQIKGKVNSITVDNCKKFGLVFDHVVGIVEVINSKDIQIQVMGRVPTISINKTEGCHLYLSEDALDCEIVSAKSSEMNVLVPQDDDYREFPIPEQFKTIWDGSKLVTEPAEIMA
With B6, in the assay with Myc-CAP2(165-476) [6], the binding result is recorded as “no binding”.

Values taken from publication doi:10.1101/789552 (bioRxiv, 2019).
